{"source": "PubChem BioAssay AID602196 – INSERM – 2012", "screen": "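Knock-downs that protect lung cancer cells from cisplatin or sensitise them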", "cells": "human A549 lung cancer cells", "knock-down reagent": "siRNA pair against human genes", "timing": "48 h transfection before cisplatin; time from cisplatin to read-out not stated", "challenge": "cisplatin at a dose killing half of control-siRNA cells; exact dose and duration not given", "measurement": "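Cisplatin cell death as a shift from the 50% death seen with control siRNA; siRNAs toxic or growth-blocking alone scored 0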", "scale": "two-siRNA summed score (-2 to +2): higher = both siRNAs protect from cisplatin killing; -2 means both sensitise", "call rule": "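siRNAs harmful alone (LDH or WST-1) get 0; others get +1 for less and -1 for more cisplatin killing; genes are active when the two siRNAs give the same sign, summing to ±2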", "calls": "active = both siRNAs shift cisplatin killing the same way; inactive = no consistent shift, or siRNA harmful alone", "note": "The whole screen tested about 23,000 reagents; this is a random part of them. Over the whole deposit, 455 (2%) are marked active. 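Active includes both protection and sensitisation; some change values fall well beyond the stated -50 to +50 range.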 A number with no mark means an inactive call. Further read-outs or replicates are left out here. No sequences are given here. Not stated in the record: the amount of reagent."}
{"Target gene":"LOC442578","PubChem SID":"SID131522364","two-siRNA summed score (-2 to +2)":1}
{"Target gene":"IFNA8","PubChem SID":"SID131508699","two-siRNA summed score (-2 to +2)":0}
{"Target gene":"PTTG1","PubChem SID":"SID131503620","two-siRNA summed score (-2 to +2)":0}
{"Target gene":"HPN","PubChem SID":"SID131501385","two-siRNA summed score (-2 to +2)":-1}
{"Target gene":"DYNLL2","PubChem SID":"SID131510261","two-siRNA summed score (-2 to +2)":0}
{"Target gene":"LOC125893","PubChem SID":"SID131514433","two-siRNA summed score (-2 to +2)":0}
{"Target gene":"LOC441580","PubChem SID":"SID131512304","two-siRNA summed score (-2 to +2)":0}

2 entries already listed, arranged by “two-siRNA summed score (-2 to +2)”, ascending.
{"Target gene":"LOC125893","PubChem SID":"SID131514433","two-siRNA summed score (-2 to +2)":0}
{"Target gene":"LOC441580","PubChem SID":"SID131512304","two-siRNA summed score (-2 to +2)":0}

Additional reagents follow.
{"Target gene":"UNG","PubChem SID":"SID131503082","two-siRNA summed score (-2 to +2)":0}
{"Target gene":"RPH3A","PubChem SID":"SID131522188","two-siRNA summed score (-2 to +2)":1}
{"Target gene":"BCL2L12","PubChem SID":"SID131522178","two-siRNA summed score (-2 to +2)":1}
{"Target gene":"WDR55","PubChem SID":"SID131505105","two-siRNA summed score (-2 to +2)":0}
{"Target gene":"LOC391849","PubChem SID":"SID131513557","two-siRNA summed score (-2 to +2)":0}
